Results taken from paper PMC8514450.
Results are given in words; binding and its absence hold for the method and conditions named. In cells and extracts the contact can be indirect. Some entries that bind do so weakly or less than the wild type.

Molecular target: Flag-p62 (UniProt Q13501)
Experiment: co-IP; HeLa cells transfected with the indicated expression vectors, treated with or without celastrol (2 uM, 1 h); lysis in 25 mM Tris-HCl pH 7.4, 150 mM NaCl, 1% Triton X-100, 5 mM EDTA; anti-Flag antibody, protein A/G-Sepharose; Western blot

Nur77 (from UniProt P22736-1 1-598)
binding: binds
